Source: the supplement of paper PMC10060354, “Discovery of a small molecule ligand of FRS2 that inhibits invasion and tumor growth” (Cellular Oncology, 2022)
Repeats are few or missing, and single values can be far off.

Chains of the proteins cited; added tags and fusions are not shown. Lines headed by an entry give the natural chain unless they say otherwise; changes in a name come on top.
UniProt Q8WUM9: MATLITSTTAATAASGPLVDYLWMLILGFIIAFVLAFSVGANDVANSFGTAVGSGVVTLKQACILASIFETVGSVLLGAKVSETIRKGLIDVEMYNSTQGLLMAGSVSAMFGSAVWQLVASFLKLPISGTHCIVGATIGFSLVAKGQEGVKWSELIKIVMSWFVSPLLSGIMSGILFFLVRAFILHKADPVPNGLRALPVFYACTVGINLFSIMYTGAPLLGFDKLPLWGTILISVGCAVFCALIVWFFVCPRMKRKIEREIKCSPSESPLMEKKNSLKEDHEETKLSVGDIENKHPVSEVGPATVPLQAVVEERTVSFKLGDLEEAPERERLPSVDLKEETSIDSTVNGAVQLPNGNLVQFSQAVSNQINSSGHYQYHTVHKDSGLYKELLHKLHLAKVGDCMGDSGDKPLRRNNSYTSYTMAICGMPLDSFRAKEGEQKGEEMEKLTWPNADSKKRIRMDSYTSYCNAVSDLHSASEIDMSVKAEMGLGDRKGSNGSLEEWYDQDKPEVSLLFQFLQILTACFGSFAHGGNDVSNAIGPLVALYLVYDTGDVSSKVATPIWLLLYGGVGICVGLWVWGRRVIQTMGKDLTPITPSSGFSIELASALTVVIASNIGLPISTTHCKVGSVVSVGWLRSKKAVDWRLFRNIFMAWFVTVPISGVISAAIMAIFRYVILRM
UniProt Q15286: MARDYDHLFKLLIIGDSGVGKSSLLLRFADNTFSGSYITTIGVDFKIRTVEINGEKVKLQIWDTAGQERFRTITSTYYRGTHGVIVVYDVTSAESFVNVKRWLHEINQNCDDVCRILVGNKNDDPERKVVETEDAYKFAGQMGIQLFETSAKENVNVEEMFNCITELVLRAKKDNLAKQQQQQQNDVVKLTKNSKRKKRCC
UniProt Q9NP61: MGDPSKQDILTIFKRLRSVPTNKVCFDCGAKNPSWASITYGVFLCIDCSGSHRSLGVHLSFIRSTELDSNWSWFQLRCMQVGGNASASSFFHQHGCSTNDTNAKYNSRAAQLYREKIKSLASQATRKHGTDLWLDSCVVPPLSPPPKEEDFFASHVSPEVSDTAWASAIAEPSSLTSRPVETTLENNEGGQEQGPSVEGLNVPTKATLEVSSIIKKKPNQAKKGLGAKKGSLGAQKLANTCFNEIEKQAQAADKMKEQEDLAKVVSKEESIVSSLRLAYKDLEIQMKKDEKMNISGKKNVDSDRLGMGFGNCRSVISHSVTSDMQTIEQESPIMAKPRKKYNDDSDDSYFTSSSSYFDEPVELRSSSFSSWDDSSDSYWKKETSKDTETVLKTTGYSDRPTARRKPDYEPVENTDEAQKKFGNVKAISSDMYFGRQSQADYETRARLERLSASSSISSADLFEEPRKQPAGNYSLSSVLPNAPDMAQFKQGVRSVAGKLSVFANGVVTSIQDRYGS
UniProt O75116: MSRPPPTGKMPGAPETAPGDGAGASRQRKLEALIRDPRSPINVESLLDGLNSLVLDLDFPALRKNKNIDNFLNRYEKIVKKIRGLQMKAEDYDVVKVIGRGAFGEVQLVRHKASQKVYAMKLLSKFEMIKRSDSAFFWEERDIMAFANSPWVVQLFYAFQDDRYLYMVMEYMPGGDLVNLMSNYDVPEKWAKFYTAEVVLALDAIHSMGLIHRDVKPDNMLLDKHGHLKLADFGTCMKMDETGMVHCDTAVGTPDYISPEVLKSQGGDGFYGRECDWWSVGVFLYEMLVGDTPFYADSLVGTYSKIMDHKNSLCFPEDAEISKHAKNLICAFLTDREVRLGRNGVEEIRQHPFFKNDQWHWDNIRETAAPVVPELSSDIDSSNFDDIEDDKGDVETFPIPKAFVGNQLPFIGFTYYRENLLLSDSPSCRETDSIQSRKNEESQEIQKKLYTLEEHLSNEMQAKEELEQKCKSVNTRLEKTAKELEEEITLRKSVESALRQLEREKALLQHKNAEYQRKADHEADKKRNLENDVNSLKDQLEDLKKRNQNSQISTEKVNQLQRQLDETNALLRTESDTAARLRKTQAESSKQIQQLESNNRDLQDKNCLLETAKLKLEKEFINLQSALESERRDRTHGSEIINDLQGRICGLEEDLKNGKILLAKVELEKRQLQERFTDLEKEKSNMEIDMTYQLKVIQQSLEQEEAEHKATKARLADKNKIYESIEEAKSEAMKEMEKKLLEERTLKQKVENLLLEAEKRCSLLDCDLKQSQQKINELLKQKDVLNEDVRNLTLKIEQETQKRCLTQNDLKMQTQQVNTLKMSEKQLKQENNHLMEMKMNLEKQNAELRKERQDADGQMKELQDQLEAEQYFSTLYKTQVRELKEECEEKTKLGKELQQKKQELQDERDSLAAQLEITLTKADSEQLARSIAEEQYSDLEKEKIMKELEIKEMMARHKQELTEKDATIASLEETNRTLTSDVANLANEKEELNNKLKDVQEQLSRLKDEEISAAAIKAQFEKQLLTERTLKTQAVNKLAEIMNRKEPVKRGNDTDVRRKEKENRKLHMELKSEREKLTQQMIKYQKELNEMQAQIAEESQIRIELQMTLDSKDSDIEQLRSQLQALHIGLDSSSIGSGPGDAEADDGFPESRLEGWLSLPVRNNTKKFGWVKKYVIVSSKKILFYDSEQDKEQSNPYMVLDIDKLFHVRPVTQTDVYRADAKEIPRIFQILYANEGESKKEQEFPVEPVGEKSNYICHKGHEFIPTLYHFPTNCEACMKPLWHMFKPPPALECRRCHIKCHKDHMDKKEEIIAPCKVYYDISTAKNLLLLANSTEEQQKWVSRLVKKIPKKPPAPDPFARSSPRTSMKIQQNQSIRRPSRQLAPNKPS
UniProt Q8N4Q0: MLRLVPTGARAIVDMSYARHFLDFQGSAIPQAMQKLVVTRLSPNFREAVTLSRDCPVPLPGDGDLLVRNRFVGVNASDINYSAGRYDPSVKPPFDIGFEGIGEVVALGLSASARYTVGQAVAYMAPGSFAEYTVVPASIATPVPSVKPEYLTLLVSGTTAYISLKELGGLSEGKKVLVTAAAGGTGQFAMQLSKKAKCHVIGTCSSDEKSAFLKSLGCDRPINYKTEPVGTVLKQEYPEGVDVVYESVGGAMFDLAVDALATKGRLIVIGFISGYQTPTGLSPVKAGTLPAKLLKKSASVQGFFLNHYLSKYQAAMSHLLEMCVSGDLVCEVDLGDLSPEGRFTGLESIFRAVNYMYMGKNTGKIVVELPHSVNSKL
UniProt Q8N568: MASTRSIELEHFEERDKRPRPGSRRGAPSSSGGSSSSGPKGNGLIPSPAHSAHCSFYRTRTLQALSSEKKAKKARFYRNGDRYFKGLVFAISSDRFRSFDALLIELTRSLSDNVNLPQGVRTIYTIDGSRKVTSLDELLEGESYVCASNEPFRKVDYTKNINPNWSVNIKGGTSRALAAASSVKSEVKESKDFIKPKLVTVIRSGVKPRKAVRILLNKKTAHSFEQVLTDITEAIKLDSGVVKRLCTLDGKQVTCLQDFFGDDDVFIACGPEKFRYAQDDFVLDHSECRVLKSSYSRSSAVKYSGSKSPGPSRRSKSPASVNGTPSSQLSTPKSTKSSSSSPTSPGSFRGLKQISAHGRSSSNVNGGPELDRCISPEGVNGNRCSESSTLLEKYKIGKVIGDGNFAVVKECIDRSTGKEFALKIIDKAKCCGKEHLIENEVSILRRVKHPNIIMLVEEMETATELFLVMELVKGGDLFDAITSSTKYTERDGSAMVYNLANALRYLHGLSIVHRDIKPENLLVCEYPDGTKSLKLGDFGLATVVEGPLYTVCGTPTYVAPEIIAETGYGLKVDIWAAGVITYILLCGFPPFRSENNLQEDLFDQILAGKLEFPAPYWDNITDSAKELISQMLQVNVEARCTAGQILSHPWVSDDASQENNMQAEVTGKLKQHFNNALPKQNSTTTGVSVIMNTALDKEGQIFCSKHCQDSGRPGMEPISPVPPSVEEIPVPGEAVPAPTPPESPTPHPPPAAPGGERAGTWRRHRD
UniProt Q16342: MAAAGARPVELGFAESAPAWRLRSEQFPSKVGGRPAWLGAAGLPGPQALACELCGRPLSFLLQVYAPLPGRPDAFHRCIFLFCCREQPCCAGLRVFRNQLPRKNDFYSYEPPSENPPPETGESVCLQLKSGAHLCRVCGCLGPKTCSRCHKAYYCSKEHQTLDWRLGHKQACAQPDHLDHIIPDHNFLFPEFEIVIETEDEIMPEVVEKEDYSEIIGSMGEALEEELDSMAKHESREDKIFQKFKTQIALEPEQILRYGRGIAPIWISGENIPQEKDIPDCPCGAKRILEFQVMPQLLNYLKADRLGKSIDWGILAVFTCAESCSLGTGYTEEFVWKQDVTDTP
UniProt Q9Y657, whole entry: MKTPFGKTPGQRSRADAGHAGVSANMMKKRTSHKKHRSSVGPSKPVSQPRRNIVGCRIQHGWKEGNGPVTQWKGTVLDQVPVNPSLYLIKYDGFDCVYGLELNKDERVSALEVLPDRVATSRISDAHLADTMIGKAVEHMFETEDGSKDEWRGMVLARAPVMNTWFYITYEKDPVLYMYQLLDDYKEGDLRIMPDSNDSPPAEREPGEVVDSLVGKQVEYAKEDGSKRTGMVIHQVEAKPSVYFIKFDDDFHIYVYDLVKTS
UniProt Q8TBC4: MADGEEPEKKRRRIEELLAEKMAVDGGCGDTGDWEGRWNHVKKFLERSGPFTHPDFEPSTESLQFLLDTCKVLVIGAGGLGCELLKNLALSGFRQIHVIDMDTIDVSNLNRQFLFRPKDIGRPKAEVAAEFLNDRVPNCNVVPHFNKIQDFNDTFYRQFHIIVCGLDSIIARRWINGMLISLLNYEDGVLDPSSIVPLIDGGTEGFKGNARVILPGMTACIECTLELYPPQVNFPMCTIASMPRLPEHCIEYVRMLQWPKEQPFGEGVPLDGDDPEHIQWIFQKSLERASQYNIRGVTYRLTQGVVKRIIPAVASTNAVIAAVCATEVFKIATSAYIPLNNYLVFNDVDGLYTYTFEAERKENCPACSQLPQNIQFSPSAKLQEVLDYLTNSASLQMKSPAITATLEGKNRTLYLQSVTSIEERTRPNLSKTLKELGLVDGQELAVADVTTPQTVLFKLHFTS
UniProt Q86XK3: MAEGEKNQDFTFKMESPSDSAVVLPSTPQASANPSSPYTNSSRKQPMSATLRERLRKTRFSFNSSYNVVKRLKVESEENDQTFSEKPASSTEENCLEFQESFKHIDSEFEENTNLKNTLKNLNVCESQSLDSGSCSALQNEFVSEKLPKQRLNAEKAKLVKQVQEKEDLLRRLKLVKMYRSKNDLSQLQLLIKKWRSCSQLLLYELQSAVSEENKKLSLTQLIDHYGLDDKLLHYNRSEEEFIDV
UniProt C9JRZ8, whole entry: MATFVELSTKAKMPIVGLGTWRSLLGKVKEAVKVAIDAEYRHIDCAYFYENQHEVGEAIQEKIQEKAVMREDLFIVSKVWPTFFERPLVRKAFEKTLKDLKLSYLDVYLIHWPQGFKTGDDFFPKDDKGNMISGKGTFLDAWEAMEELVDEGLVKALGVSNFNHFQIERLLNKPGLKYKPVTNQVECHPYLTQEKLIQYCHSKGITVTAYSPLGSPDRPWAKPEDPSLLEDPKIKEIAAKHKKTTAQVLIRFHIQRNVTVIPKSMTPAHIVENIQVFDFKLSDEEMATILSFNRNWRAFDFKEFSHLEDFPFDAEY
UniProt Q9NUM4, whole entry: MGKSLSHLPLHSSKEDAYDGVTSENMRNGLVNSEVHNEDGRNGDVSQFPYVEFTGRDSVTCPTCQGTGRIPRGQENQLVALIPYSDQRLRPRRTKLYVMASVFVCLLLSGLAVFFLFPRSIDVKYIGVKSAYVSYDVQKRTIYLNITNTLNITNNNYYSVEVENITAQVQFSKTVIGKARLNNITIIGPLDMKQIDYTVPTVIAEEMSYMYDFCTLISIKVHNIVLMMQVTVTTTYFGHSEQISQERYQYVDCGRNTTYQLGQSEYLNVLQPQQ
UniProt O00459, whole entry: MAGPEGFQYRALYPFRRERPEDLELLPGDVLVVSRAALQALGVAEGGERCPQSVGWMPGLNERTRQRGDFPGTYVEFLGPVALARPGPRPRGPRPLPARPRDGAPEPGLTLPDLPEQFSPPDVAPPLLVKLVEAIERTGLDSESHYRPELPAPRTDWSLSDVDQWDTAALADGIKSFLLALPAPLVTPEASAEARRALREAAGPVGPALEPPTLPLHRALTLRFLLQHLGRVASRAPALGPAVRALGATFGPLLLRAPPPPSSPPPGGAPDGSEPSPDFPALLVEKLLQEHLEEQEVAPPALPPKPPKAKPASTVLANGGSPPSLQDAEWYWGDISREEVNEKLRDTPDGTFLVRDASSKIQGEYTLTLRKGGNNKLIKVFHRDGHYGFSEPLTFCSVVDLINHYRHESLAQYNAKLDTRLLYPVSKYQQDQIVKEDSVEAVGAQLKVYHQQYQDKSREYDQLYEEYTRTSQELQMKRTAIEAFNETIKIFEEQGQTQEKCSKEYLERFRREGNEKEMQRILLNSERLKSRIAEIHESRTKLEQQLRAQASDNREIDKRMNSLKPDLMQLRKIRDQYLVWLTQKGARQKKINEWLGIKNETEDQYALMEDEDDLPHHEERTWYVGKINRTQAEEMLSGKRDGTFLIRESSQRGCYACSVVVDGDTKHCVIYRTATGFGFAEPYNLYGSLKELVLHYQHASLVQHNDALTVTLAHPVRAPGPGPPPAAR

Compound: [O-][N+](C(C1=C(C(O)=C2)NC(C(C=C3)=CC=C3Cl)C4C1C=CC4)=C2Cl)=O
Test: melting temperature shift (compound 7 minus DMSO); higher = compound stabilises the protein
Conditions: 10 µM
Procedure: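 Thermal proteome profiling (TMT mass spectrometry) in intact DAOY medulloblastoma cells or DAOY lysates treated with 10 µM compound 7 or DMSO, heated at 10 temperatures from 40.5 to 73.8 °C for 3 min. Melting curves were fitted with the Bioconductor TPP package, and the melting point difference between compound and vehicle is reported per protein (single curve per condition).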

[1] = system: DAOY cell lysate, treatment time: 20 min, 4 °C
[2] = system: intact DAOY cells, treatment time: 90 min, 37 °C

## SLC25A6 (UniProt P12236)
[1]
  melting temperature shift: 2.37 °C
[2]
  melting temperature shift: 1.39 °C

## UniProt Q9BY11
[2]
  melting temperature shift: 2.64 °C

## UniProt Q9NX01
[1]
  melting temperature shift: -1.99 °C
[2]
  melting temperature shift: 0.784 °C

## PRPS2 (UniProt P11908)
[1]
  melting temperature shift: -0.317 °C
[2]
  melting temperature shift: 2.51 °C

## TMED9 (UniProt Q9BVK6)
[1]
  melting temperature shift: 1.98 °C
[2]
  melting temperature shift: -0.627 °C

## AP4E1 (UniProt Q9UPM8)
[1]
  melting temperature shift: -1.38 °C
[2]
  melting temperature shift: 0.319 °C

## L2HGDH (UniProt Q9H9P8)
[1]
  melting temperature shift: 1.34 °C
[2]
  melting temperature shift: 1.65 °C

## EEF1B2 (UniProt P24534)
[2]
  melting temperature shift: 0.245 °C

## TSTA3 (UniProt Q13630)
[1]
  melting temperature shift: -0.151 °C
[2]
  melting temperature shift: -0.014 °C

## BCL7B (UniProt Q9BQE9)
[1]
  melting temperature shift: 1.53 °C

## TTK (UniProt P33981)
[1]
  melting temperature shift: -0.862 °C
[2]
  melting temperature shift: -0.118 °C

## FASTKD5 (UniProt Q7L8L6)
[1]
  melting temperature shift: -0.952 °C

## SLC20A1 (UniProt Q8WUM9)
[1]
  melting temperature shift: 6 °C

## UniProt P0DJD0
[2]
  melting temperature shift: -1.81 °C

## UniProt E9PQ53
[2]
  melting temperature shift: -2.26 °C

## C1ORF52 (UniProt Q8N6N3)
[1]
  melting temperature shift: -2.55 °C

## CDC42BPB (UniProt Q9Y5S2)
[1]
  melting temperature shift: -0.485 °C
[2]
  melting temperature shift: -0.0863 °C

## COG1 (UniProt Q8WTW3)
[1]
  melting temperature shift: -1.2 °C
[2]
  melting temperature shift: -0.585 °C

## ARHGEF7 (UniProt Q14155)
[1]
  melting temperature shift: -0.278 °C
[2]
  melting temperature shift: -0.963 °C

## TAF15 (UniProt Q92804)
[1]
  melting temperature shift: 1.83 °C

## GTF2H3 (UniProt Q13889)
[1]
  melting temperature shift: 0.126 °C

## UniProt Q02297
[1]
  melting temperature shift: -3.27 °C
[2]
  melting temperature shift: 2.32 °C

## UniProt P21589
[1]
  melting temperature shift: 0.67 °C

## HNRNPU (UniProt Q00839)
[1]
  melting temperature shift: 0.767 °C
[2]
  melting temperature shift: -1.21 °C

## SNAP29 (UniProt O95721)
[1]
  melting temperature shift: -2.08 °C

## DOPEY2 (UniProt Q9Y3R5)
[1]
  melting temperature shift: -0.409 °C

## RCOR3 (UniProt Q9P2K3)
[1]
  melting temperature shift: 0.307 °C
[2]
  melting temperature shift: -1.56 °C

## UniProt P17544
[2]
  melting temperature shift: 0.889 °C

## RAB35 (UniProt Q15286)
[1]
  melting temperature shift: 0.274 °C
[2]
  melting temperature shift: -0.92 °C

## UniProt A4FU01
[2]
  melting temperature shift: -0.466 °C

## MYDGF (UniProt Q969H8)
[1]
  melting temperature shift: -0.13 °C
[2]
  melting temperature shift: -1.15 °C

## ARFGAP3 (UniProt Q9NP61)
[1]
  melting temperature shift: -0.703 °C
[2]
  melting temperature shift: -0.173 °C

## UniProt Q16623
[1]
  melting temperature shift: -1.25 °C

## DAAM1 (UniProt Q9Y4D1)
[1]
  melting temperature shift: 0.834 °C
[2]
  melting temperature shift: -0.427 °C

## UniProt Q5SQI0
[1]
  melting temperature shift: -2.51 °C

## UniProt Q96I36
[1]
  melting temperature shift: 0.929 °C

## LRRC8A (UniProt Q8IWT6)
[1]
  melting temperature shift: 1.12 °C
[2]
  melting temperature shift: 0.467 °C

## YWHAQ (UniProt P27348)
[1]
  melting temperature shift: 0.0452 °C
[2]
  melting temperature shift: 0.329 °C

## UniProt O00213
[2]
  melting temperature shift: 0.0809 °C

## MPHOSPH10 (UniProt O00566)
[2]
  melting temperature shift: 2.14 °C

## CCNB2 (UniProt O95067)
[1]
  melting temperature shift: 0.567 °C
[2]
  melting temperature shift: 0.0336 °C

## UniProt Q05639
[1]
  melting temperature shift: -0.504 °C
[2]
  melting temperature shift: -0.29 °C

## ROCK2 (UniProt O75116)
[1]
  melting temperature shift: -0.0651 °C
[2]
  melting temperature shift: -0.25 °C

## ZADH2 (UniProt Q8N4Q0)
[2]
  melting temperature shift: -1.26 °C

## SUOX (UniProt P51687)
[1]
  melting temperature shift: -2.07 °C

## ECI2 (UniProt O75521)
[1]
  melting temperature shift: 0.858 °C
[2]
  melting temperature shift: -1.8 °C

## CXORF56 (UniProt Q9H5V9)
[1]
  melting temperature shift: -0.207 °C
[2]
  melting temperature shift: 0.425 °C

## HECTD1 (UniProt Q9ULT8)
[1]
  melting temperature shift: -0.446 °C
[2]
  melting temperature shift: -0.147 °C

## UniProt Q9H9B1
[1]
  melting temperature shift: -0.61 °C
[2]
  melting temperature shift: -0.272 °C

## GALE (UniProt Q14376)
[1]
  melting temperature shift: 0.396 °C
[2]
  melting temperature shift: 0.842 °C

## MRPL40 (UniProt Q9NQ50)
[1]
  melting temperature shift: -0.161 °C

## PFKM (UniProt P08237)
[1]
  melting temperature shift: -0.577 °C
[2]
  melting temperature shift: -0.235 °C

## UniProt Q8N568
[2]
  melting temperature shift: -2.29 °C

## TSSC1 (UniProt Q53HC9)
[1]
  melting temperature shift: 0.301 °C
[2]
  melting temperature shift: 0.66 °C

## FAM20B (UniProt O75063)
[1]
  melting temperature shift: 0.878 °C
[2]
  melting temperature shift: 1.24 °C

## UniProt P50993
[2]
  melting temperature shift: -0.425 °C

## COA1 (UniProt Q9GZY4)
[1]
  melting temperature shift: 0.254 °C
[2]
  melting temperature shift: 0.451 °C

## ANKRD52 (UniProt Q8NB46)
[1]
  melting temperature shift: -0.23 °C
[2]
  melting temperature shift: 2.32 °C

## TIAL1 (UniProt Q01085)
[1]
  melting temperature shift: 0.427 °C
[2]
  melting temperature shift: -0.377 °C

## CAMSAP2 (UniProt Q08AD1)
[1]
  melting temperature shift: -0.269 °C
[2]
  melting temperature shift: -0.985 °C

## UniProt P11277
[2]
  melting temperature shift: 0.7 °C

## ACAD9 (UniProt Q9H845)
[1]
  melting temperature shift: 1.04 °C
[2]
  melting temperature shift: -0.422 °C

## PDCD2 (UniProt Q16342)
[1]
  melting temperature shift: 0.337 °C
[2]
  melting temperature shift: -0.801 °C

## MRPS28 (UniProt Q9Y2Q9)
[1]
  melting temperature shift: 0.841 °C
[2]
  melting temperature shift: -0.687 °C

## SPIN1 (UniProt Q9Y657)
[1]
  melting temperature shift: 0.745 °C
[2]
  melting temperature shift: 0.424 °C

## NEGR1 (UniProt Q7Z3B1)
[1]
  melting temperature shift: 4.75 °C
[2]
  melting temperature shift: 2.28 °C

## UniProt O14653
[1]
  melting temperature shift: -1.25 °C
[2]
  melting temperature shift: -0.628 °C

## TIMM23 (UniProt O14925)
[1]
  melting temperature shift: 2.01 °C
[2]
  melting temperature shift: -1.01 °C

## SRSF7 (UniProt Q16629)
[1]
  melting temperature shift: 1.37 °C
[2]
  melting temperature shift: 0.599 °C

## SMAD4 (UniProt Q13485)
[1]
  melting temperature shift: -1.08 °C
[2]
  melting temperature shift: 0.428 °C

## BCLAF1 (UniProt Q9NYF8)
[1]
  melting temperature shift: 0.559 °C
[2]
  melting temperature shift: 2.61 °C

## UniProt O43502
[2]
  melting temperature shift: 1.42 °C

## PIP4K2C (UniProt Q8TBX8)
[1]
  melting temperature shift: -0.258 °C
[2]
  melting temperature shift: -0.791 °C

## UBA3 (UniProt Q8TBC4)
[1]
  melting temperature shift: -0.189 °C
[2]
  melting temperature shift: -0.33 °C

## UniProt P55082
[2]
  melting temperature shift: 1.19 °C

## PARP9 (UniProt Q8IXQ6)
[1]
  melting temperature shift: -1.83 °C

## SFR1 (UniProt Q86XK3)
[1]
  melting temperature shift: 0.0934 °C

## UniProt O96007
[1]
  melting temperature shift: -0.0581 °C

## PAK2 (UniProt Q13177)
[1]
  melting temperature shift: -0.536 °C
[2]
  melting temperature shift: 0.264 °C

## UniProt Q14568
[2]
  melting temperature shift: -0.4 °C

## UniProt P23743
[2]
  melting temperature shift: -0.939 °C

## UniProt C9JRZ8
[2]
  melting temperature shift: -0.829 °C

## GATSL2 (UniProt A6NHX0)
[1]
  melting temperature shift: -0.409 °C
[2]
  melting temperature shift: -0.914 °C

## TMEM106B (UniProt Q9NUM4)
[1]
  melting temperature shift: 2.8 °C
[2]
  melting temperature shift: 2.55 °C

## AIFM2 (UniProt Q9BRQ8)
[1]
  melting temperature shift: -1.09 °C
[2]
  melting temperature shift: 2.31 °C

## LRRC40 (UniProt Q9H9A6)
[1]
  melting temperature shift: -0.699 °C
[2]
  melting temperature shift: -0.576 °C

## UniProt Q9Y388
[1]
  melting temperature shift: -0.485 °C

## UniProt P02649
[1]
  melting temperature shift: -3.23 °C

## POLRMT (UniProt O00411)
[1]
  melting temperature shift: 4.04 °C

## PLGRKT (UniProt Q9HBL7)
[1]
  melting temperature shift: 3.81 °C
[2]
  melting temperature shift: 0.561 °C

## UniProt Q96G61
[1]
  melting temperature shift: -1.1 °C
[2]
  melting temperature shift: 0.578 °C

## PIK3R2 (UniProt O00459)
[1]
  melting temperature shift: 0.586 °C
[2]
  melting temperature shift: 2.66 °C

## UniProt Q6NXT2
[2]
  melting temperature shift: 0.38 °C

## RPS11 (UniProt P62280)
[1]
  melting temperature shift: 0.489 °C
[2]
  melting temperature shift: -0.832 °C

## ARID2 (UniProt Q68CP9)
[1]
  melting temperature shift: -1.13 °C
